Reference: the supplement of paper PMC12819154, “High-throughput peptide-centric local stability assay extends protein–ligand identification to membrane proteins, tissues and bacteria” (Nature Structural & Molecular Biology, 2025)
The other results are listed elsewhere or left out. Small differences around the control level are noise.

The chains behind the UniProt entries cited, without tags or fusion partners. Where a name states a change or a piece, a line headed by the entry shows the natural chain unless it says otherwise.
UniProt Q9Z0M5: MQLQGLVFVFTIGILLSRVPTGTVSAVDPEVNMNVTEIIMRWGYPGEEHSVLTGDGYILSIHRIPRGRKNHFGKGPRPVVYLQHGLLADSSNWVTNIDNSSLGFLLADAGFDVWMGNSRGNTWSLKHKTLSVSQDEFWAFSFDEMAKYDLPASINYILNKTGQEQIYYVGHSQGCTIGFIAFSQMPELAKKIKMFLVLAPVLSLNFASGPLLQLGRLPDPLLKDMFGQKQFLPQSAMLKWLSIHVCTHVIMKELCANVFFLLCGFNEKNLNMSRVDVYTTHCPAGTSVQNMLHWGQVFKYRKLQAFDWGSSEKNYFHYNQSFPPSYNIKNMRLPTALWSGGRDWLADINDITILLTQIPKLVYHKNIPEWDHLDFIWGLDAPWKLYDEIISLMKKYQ
UniProt Q9WUB3: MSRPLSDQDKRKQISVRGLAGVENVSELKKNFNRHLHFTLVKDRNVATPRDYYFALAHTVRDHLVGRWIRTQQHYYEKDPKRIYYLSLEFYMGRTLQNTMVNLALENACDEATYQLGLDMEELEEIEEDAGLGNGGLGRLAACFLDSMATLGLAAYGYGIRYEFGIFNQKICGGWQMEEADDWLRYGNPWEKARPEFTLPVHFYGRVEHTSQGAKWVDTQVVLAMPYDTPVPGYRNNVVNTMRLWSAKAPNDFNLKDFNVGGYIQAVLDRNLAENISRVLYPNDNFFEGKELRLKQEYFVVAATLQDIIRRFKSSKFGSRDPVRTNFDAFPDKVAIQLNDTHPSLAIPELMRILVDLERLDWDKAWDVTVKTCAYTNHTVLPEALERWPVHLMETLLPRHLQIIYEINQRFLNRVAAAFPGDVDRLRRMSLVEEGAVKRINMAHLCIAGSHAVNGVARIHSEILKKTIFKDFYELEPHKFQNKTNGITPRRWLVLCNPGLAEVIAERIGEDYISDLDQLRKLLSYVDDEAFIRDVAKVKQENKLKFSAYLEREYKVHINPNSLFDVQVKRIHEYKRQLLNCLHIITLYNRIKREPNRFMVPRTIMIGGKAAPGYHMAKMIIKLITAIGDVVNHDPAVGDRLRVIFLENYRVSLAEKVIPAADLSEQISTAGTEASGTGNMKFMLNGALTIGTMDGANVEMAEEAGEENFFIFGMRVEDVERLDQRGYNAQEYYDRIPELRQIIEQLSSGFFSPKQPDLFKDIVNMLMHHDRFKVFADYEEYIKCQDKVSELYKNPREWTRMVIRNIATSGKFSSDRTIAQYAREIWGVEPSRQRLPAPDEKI
UniProt Q9Z2H5, whole entry: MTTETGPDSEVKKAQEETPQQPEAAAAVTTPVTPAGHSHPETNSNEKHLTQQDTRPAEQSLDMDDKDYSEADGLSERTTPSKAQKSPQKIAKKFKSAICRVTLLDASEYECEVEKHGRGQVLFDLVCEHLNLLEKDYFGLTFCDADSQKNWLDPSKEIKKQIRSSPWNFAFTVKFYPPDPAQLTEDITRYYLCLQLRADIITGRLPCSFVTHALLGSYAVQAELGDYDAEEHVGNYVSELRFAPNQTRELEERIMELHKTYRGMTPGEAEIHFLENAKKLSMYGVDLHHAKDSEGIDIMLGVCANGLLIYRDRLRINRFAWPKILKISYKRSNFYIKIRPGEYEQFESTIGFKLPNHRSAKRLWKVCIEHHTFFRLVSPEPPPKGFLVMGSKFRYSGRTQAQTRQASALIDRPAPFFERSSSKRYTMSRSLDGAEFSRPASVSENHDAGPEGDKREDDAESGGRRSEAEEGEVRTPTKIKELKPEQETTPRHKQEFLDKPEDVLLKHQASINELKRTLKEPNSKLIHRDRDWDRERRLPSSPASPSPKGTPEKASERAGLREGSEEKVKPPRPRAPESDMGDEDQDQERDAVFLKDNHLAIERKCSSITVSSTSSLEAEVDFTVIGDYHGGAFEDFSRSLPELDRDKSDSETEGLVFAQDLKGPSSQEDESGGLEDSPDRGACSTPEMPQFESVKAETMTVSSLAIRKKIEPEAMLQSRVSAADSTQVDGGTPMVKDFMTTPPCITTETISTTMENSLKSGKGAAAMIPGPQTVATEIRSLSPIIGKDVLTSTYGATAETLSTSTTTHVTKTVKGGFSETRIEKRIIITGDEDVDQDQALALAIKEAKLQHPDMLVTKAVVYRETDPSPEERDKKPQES
UniProt Q9Z1P6, whole entry: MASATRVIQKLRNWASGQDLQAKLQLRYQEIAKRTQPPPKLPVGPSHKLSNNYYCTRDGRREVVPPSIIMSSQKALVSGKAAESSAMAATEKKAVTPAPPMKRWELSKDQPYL
UniProt Q9R1V6: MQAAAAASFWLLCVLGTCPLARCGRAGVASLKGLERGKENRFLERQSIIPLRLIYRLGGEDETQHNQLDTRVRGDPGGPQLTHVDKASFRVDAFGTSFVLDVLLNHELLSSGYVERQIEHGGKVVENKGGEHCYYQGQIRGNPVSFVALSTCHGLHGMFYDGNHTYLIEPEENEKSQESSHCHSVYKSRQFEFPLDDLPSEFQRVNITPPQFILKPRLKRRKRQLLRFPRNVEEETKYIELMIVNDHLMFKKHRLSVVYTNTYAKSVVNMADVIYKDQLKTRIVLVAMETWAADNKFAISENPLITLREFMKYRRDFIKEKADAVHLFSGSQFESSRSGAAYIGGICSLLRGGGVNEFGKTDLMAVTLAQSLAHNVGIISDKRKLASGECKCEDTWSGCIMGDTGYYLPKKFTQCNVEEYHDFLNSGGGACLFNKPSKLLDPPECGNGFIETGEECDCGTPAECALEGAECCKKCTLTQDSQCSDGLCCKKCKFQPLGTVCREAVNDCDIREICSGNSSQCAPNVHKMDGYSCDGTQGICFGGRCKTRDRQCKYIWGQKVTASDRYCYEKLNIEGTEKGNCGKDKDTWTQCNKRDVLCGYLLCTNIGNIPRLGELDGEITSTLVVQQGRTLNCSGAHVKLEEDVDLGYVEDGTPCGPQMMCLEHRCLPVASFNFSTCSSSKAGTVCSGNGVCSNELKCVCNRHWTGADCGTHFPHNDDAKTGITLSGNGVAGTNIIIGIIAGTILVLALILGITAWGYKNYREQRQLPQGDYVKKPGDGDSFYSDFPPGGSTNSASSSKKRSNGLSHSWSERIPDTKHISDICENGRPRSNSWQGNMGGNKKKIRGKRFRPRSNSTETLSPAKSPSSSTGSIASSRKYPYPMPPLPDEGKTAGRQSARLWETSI
UniProt Q9QZH3: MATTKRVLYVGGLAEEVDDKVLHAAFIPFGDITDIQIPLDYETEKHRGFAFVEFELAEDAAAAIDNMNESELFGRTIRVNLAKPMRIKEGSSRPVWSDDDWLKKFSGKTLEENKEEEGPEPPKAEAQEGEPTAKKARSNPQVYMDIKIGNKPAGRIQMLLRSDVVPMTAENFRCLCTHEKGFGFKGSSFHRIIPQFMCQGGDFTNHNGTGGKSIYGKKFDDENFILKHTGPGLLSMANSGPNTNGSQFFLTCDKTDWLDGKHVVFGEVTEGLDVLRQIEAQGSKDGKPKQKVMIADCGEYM
UniProt Q9Z2M7: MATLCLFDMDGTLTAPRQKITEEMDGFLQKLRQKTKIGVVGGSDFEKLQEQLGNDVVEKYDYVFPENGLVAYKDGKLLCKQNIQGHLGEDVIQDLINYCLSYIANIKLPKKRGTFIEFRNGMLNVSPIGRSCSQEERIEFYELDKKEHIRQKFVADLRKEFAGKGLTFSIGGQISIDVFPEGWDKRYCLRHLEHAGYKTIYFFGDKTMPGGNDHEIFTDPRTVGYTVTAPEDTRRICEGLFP
UniProt Q9Z2E1, whole entry: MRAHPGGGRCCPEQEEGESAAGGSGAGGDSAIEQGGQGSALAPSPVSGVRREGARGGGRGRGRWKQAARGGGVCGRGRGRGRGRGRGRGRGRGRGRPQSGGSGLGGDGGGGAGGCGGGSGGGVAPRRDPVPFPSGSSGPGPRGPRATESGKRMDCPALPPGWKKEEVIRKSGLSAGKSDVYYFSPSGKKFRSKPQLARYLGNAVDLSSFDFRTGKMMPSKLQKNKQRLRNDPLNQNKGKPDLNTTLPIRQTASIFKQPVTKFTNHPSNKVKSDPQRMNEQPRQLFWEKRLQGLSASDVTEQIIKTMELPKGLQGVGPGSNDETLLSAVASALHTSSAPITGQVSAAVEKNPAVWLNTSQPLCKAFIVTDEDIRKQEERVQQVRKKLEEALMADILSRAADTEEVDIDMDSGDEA
UniProt Q9WU42, whole entry: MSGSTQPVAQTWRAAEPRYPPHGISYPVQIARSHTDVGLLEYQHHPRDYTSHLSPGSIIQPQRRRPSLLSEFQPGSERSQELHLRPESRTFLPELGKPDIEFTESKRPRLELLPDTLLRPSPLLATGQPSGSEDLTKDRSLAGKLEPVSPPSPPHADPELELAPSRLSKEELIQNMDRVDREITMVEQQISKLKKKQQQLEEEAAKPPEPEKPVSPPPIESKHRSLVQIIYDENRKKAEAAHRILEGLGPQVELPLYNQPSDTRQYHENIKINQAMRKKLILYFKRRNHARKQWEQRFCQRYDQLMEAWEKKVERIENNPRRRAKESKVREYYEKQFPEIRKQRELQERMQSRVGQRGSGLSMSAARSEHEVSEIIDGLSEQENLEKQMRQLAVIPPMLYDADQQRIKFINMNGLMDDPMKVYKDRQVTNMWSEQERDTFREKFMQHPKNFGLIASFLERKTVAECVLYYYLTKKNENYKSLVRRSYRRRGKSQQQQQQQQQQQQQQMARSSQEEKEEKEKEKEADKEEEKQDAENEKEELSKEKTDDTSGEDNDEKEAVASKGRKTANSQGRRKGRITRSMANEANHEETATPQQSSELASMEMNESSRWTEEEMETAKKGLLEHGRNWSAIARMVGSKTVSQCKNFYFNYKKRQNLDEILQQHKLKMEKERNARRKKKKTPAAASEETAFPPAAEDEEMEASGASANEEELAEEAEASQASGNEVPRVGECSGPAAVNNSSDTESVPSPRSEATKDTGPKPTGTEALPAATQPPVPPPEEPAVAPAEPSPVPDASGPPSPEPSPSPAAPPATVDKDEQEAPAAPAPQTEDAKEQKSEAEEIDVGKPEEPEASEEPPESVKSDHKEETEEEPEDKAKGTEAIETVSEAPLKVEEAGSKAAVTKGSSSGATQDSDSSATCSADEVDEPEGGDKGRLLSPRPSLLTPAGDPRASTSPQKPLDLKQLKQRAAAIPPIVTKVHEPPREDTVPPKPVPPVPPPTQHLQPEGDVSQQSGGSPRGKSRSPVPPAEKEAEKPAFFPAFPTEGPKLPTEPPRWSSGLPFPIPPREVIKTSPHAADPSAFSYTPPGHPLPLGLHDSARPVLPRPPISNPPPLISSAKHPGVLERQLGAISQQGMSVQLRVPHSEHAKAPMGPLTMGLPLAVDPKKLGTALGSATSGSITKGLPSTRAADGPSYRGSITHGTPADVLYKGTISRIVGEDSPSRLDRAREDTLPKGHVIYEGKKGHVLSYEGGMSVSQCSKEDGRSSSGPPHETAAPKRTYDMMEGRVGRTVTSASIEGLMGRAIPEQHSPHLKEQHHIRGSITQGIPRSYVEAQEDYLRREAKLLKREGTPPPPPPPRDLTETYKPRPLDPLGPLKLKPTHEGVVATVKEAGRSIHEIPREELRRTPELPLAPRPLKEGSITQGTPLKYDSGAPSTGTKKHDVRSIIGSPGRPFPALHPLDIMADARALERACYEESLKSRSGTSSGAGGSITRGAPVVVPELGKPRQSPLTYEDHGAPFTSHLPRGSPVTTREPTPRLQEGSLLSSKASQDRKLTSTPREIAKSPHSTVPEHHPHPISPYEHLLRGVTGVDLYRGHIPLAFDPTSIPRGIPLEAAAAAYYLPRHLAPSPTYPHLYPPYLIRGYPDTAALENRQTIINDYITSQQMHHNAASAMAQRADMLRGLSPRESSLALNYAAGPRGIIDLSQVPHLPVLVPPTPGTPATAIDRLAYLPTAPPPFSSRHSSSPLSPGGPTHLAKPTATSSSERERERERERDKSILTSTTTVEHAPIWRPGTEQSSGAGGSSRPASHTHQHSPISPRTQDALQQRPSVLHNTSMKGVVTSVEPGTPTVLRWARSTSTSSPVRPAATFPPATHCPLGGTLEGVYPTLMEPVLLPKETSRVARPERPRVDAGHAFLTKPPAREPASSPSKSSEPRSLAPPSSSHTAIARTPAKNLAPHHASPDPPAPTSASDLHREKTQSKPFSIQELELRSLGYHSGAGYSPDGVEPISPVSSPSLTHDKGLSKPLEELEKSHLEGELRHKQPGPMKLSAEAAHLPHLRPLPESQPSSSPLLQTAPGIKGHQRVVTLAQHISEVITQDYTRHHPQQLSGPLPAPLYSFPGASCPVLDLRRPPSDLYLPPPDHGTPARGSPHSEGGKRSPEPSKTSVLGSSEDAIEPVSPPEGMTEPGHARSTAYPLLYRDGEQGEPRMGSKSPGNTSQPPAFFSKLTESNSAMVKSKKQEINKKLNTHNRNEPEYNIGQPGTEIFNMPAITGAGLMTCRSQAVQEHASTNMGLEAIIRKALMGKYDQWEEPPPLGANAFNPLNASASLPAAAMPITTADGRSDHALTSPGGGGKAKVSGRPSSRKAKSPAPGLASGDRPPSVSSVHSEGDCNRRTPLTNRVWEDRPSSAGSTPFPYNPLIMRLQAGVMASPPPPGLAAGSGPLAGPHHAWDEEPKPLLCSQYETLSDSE

Compound: CN[C@@H]1C[C@H]2O[C@@](C)([C@@H]1OC)n1c3ccccc3c3c4c(c5c6ccccc6n2c5c31)C(=O)NC4 [staurosporine]
Assay: log2 fold change of pooled soluble protein (PISA), ligand vs vehicle (log2 ratio); higher = more thermally stabilized
Conditions: ligand concentration: 20 uM; assay format: PISA pool 52.9/55.5/58.6 C

Target | log2 fold change of pooled soluble protein
UniProt Q9R1Z8 | 0.0453
UniProt Q9Z266 | -0.0104
UniProt Q9QZ88 | -0.158
UniProt Q9R0N0 | 0.0198
UniProt Q9Z0M5 | 0.0321
UniProt Q9QZD8 | -0.165
UniProt Q9WUB3 | -0.174
UniProt Q9Z0S9 | -0.0653
UniProt Q9QZW0 | 0.00907
UniProt Q9Z0R4 | -0.0424
UniProt Q9Z2H5 | 0.0526
UniProt Q9QZ23 | 0.12
UniProt Q9Z1P6 | -0.111
UniProt Q9Z2Q5 | -0.103
UniProt Q9WTU6 | 0.506
UniProt Q9WUD1 | -0.0359
UniProt Q9Z1G4 | 0.0767
UniProt Q9R1P1 | 0.174
UniProt Q9WUR2 | 0.0384

Rewritten in markdown: part of the list above

| Target | log2 fold change of pooled soluble protein |
| --- | --- |
| UniProt Q9R1Z8 | 0.0453 |
| UniProt Q9QZ88 | -0.158 |
| UniProt Q9R0N0 | 0.0198 |
| UniProt Q9Z0M5 | 0.0321 |
| UniProt Q9QZW0 | 0.00907 |
| UniProt Q9QZ23 | 0.12 |
| UniProt Q9Z1P6 | -0.111 |
| UniProt Q9WUD1 | -0.0359 |
| UniProt Q9Z1G4 | 0.0767 |
| UniProt Q9R1P1 | 0.174 |

The list continues:

Target | log2 fold change of pooled soluble protein
UniProt Q9R1V6 | -0.612
UniProt Q9WUQ2 | -0.23
UniProt Q9Z1R4 | -0.106
UniProt Q9WUR9 | -0.117
UniProt Q9QZH3 | -0.0998
UniProt Q9R1Q6 | -0.0707
UniProt Q9Z1Q2 | 0.0832
UniProt Q9Z2M7 | -0.166
UniProt Q9Z0J0 | -0.0097
UniProt Q9Z1T2 | -0.141
UniProt Q9Z130 | 0.0833
UniProt Q9Z1Z0 | -0.014
UniProt Q9Z2E1 | -0.0623
UniProt Q9WVA2 | -0.03
UniProt Q9WU42 | -0.00633
UniProt Q9WU79 | -0.00676
UniProt Q9WTQ8 | -0.38
UniProt Q9Z1N5 | 0.105
